Reference: patent publication US8685890 (Bicycle, dated 2014)
Results are given in words; binding and its absence hold for the method and conditions named. Some entries that bind do so weakly or less than the wild type.

Protein sequences, listed by entry. Tags and fused reporters are not part of them. Residues count along the entry.
UniProt P03952, residues 20-638: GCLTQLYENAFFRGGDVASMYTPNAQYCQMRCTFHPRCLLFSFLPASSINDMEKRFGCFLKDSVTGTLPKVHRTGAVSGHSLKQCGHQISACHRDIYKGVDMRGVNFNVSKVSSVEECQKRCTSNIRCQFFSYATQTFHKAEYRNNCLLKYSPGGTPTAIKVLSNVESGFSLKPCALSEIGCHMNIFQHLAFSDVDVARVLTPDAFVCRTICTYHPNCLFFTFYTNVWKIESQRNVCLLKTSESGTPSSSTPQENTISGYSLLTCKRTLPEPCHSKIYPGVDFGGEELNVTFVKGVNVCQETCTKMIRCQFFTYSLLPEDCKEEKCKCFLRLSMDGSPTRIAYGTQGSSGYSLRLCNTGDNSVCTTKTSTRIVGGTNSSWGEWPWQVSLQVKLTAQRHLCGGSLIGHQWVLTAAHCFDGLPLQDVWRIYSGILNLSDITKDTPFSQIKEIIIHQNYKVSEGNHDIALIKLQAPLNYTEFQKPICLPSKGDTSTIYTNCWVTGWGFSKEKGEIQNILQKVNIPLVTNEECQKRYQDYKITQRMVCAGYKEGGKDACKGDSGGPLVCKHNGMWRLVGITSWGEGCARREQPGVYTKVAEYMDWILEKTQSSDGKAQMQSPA
UniProt P02769, residues 25-607: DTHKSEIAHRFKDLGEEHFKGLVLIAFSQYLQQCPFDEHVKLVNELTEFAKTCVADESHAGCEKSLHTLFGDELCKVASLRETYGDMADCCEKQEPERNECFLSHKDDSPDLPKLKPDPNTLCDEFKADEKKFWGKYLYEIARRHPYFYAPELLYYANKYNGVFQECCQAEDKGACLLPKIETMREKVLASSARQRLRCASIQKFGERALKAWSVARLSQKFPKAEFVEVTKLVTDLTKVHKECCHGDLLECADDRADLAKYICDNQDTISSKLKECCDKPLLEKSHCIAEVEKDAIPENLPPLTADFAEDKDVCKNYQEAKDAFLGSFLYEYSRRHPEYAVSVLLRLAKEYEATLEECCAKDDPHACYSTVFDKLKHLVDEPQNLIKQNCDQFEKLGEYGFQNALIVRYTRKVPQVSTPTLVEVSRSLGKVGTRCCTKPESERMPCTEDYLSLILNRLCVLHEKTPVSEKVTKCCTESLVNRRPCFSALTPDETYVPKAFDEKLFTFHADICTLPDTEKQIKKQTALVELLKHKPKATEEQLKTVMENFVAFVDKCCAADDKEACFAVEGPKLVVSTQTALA
UniProt Q00987, residues 2-125: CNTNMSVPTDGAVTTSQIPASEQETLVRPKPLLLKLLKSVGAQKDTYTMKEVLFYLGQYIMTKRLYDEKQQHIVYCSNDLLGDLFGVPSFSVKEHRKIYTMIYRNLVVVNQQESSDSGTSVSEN

Legend:
kallikrein = kallikrein (UniProt P03952 20-638, limits assumed); assay: inferred by the filing from inhibition of kallikrein activity
bovine serum albumin [1] = target: T1, bovine serum albumin (bovine, UniProt P02769 25-607); assay: fluorescence anisotropy titration, BSA titrated into the bicyclic peptide (y axis without label)
T1 construct: also called BSA

[2] = target: Mdm2 (construct limits not stated) (UniProt Q00987); assay: fluorescence anisotropy titration, Mdm2 titrated into the bicyclic peptide (y axis without label)
bovine serum albumin [3] = target: T1, bovine serum albumin; assay: fluorescence anisotropy titration
[4] = target: Mdm2 (construct limits not stated) (UniProt Q00987); assay: fluorescence anisotropy titration
MDM2 (res 2-125) = MDM2 (res 2-125) (UniProt Q00987); assay: fluorescence anisotropy titration, MDM2 (res 2-125) titrated into the peptide

Measured: binding

WGGGACVRFGWTCSDRFRNCG (N-terminal Fmoc; C-terminal amide; the three cysteines linked to TBMB) [bicyclic Fmoc-WGGGA-PEP48L1-PK15L1]
not listed: MDM2 (res 2-125)
binds: all other assays above

ACSDRFRNCVRFGWTCG (the three cysteines linked to the TBMB core) [PK15L1-PEP48L1 bicyclic]
binds: MDM2 (res 2-125)
